Measurements reported in the supplement of paper PMC7661543.
Differences between knockout arms are mostly noise.

Test system: HCC-38
Test: relative cell number vs DMSO control (72 h) (% of DMSO); higher = less growth inhibition (more cells)
Procedure: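 QMAP-Seq: a pool of 5 breast cancer cell lines (ZR-75-1, SKBR3, HCC-38, MDA-MB-231, BT-20), each carrying 12 doxycycline-inducible Cas9 sgRNA perturbations (11 knockouts plus non-targeting sgNT), was treated with compounds for 72 h at four 10-fold doses (10 nM-10 uM or 1 nM-1 uM range). Barcodes were amplified and sequenced, and cell number was interpolated from 293T spike-in standard curves. The result is expressed as % of the median of DMSO wells. Two biological replicates.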

NC(=O)Nc1sc(-c2ccc(F)cc2)cc1C(N)=O [TPCA1]
Conditions | relative cell number
sgRNA knockout: sgATF3, 10 nM | 99
sgRNA knockout: sgATF3, 100 nM | 87.9
sgRNA knockout: sgATF3, 1000 nM | 120
sgRNA knockout: sgATF3, 10000 nM | 71.1
sgRNA knockout: sgATF4, 10 nM | 79.5
sgRNA knockout: sgATF4, 100 nM | 88.8
sgRNA knockout: sgATF4, 1000 nM | 107
sgRNA knockout: sgATF4, 10000 nM | 78.3
sgRNA knockout: sgATF6, 10 nM | 96
sgRNA knockout: sgATF6, 100 nM | 105
sgRNA knockout: sgATF6, 1000 nM | 106
sgRNA knockout: sgATF6, 10000 nM | 69.1
sgRNA knockout: sgATG7, 10 nM | 87.3
sgRNA knockout: sgATG7, 100 nM | 87.48
sgRNA knockout: sgATG7, 1000 nM | 116
sgRNA knockout: sgATG7, 10000 nM | 78.8
sgRNA knockout: sgERN1, 10 nM | 92.939
sgRNA knockout: sgERN1, 100 nM | 100
sgRNA knockout: sgERN1, 1000 nM | 107
sgRNA knockout: sgERN1, 10000 nM | 74.2
sgRNA knockout: sgHSF1, 10 nM | 115
sgRNA knockout: sgHSF1, 100 nM | 110
sgRNA knockout: sgHSF1, 1000 nM | 108
sgRNA knockout: sgHSF1, 10000 nM | 79.3
sgRNA knockout: sgHSF2, 10 nM | 102.5
sgRNA knockout: sgHSF2, 100 nM | 100
sgRNA knockout: sgHSF2, 1000 nM | 112
sgRNA knockout: sgHSF2, 10000 nM | 80.7
sgRNA knockout: sgKEAP1, 10 nM | 118
sgRNA knockout: sgKEAP1, 100 nM | 127
sgRNA knockout: sgKEAP1, 1000 nM | 102
sgRNA knockout: sgKEAP1, 10000 nM | 82.3
sgRNA knockout: sgNFE2L2, 10 nM | 81.7
sgRNA knockout: sgNFE2L2, 100 nM | 86.04
sgRNA knockout: sgNFE2L2, 1000 nM | 110
sgRNA knockout: sgNFE2L2, 10000 nM | 70.6
sgRNA knockout: sgSLC35F2, 10 nM | 96.1
sgRNA knockout: sgSLC35F2, 100 nM | 91.6
sgRNA knockout: sgSLC35F2, 1000 nM | 110
sgRNA knockout: sgSLC35F2, 10000 nM | 76.1
sgRNA knockout: sgXBP1, 10 nM | 94.8
sgRNA knockout: sgXBP1, 100 nM | 93.3
sgRNA knockout: sgXBP1, 1000 nM | 115
sgRNA knockout: sgXBP1, 10000 nM | 79.4

Cn1nnc2c(C(N)=O)ncn2c1=O [Temozolomide]
Conditions | relative cell number
sgRNA knockout: sgATF3, 10 nM | 125
sgRNA knockout: sgATF3, 100 nM | 92.3
sgRNA knockout: sgATF3, 1000 nM | 119
sgRNA knockout: sgATF3, 10000 nM | 140
sgRNA knockout: sgATF4, 10 nM | 118
sgRNA knockout: sgATF4, 100 nM | 89.2
sgRNA knockout: sgATF4, 1000 nM | 119.9
sgRNA knockout: sgATF4, 10000 nM | 139
sgRNA knockout: sgATF6, 10 nM | 126
sgRNA knockout: sgATF6, 100 nM | 105
sgRNA knockout: sgATF6, 1000 nM | 137
sgRNA knockout: sgATF6, 10000 nM | 142
sgRNA knockout: sgATG7, 10 nM | 119
sgRNA knockout: sgATG7, 100 nM | 90
sgRNA knockout: sgATG7, 1000 nM | 116
sgRNA knockout: sgATG7, 10000 nM | 140
sgRNA knockout: sgERN1, 10 nM | 118.2
sgRNA knockout: sgERN1, 100 nM | 95.5
sgRNA knockout: sgERN1, 1000 nM | 130
sgRNA knockout: sgERN1, 10000 nM | 145
sgRNA knockout: sgHSF1, 10 nM | 121
sgRNA knockout: sgHSF1, 100 nM | 111
sgRNA knockout: sgHSF1, 1000 nM | 120
sgRNA knockout: sgHSF1, 10000 nM | 173
sgRNA knockout: sgHSF2, 10 nM | 127.8
sgRNA knockout: sgHSF2, 100 nM | 108.2
sgRNA knockout: sgHSF2, 1000 nM | 127
sgRNA knockout: sgHSF2, 10000 nM | 138
sgRNA knockout: sgKEAP1, 10 nM | 150
sgRNA knockout: sgKEAP1, 100 nM | 127
sgRNA knockout: sgKEAP1, 1000 nM | 148
sgRNA knockout: sgKEAP1, 10000 nM | 181
sgRNA knockout: sgNFE2L2, 10 nM | 117
sgRNA knockout: sgNFE2L2, 100 nM | 87.1
sgRNA knockout: sgNFE2L2, 1000 nM | 118
sgRNA knockout: sgNFE2L2, 10000 nM | 126
sgRNA knockout: sgSLC35F2, 10 nM | 116
sgRNA knockout: sgSLC35F2, 100 nM | 99.5
sgRNA knockout: sgSLC35F2, 1000 nM | 117
sgRNA knockout: sgSLC35F2, 10000 nM | 136
sgRNA knockout: sgXBP1, 10 nM | 121
sgRNA knockout: sgXBP1, 100 nM | 90.5
sgRNA knockout: sgXBP1, 1000 nM | 125
sgRNA knockout: sgXBP1, 10000 nM | 140

O=C1CCC(N2C(=O)c3ccccc3C2=O)C(=O)N1 (configuration not stated) [Thalidomide]
Conditions | relative cell number
sgRNA knockout: sgATF3, 10 nM | 115
sgRNA knockout: sgATF3, 100 nM | 90.5
sgRNA knockout: sgATF3, 1000 nM | 126
sgRNA knockout: sgATF3, 10000 nM | 109
sgRNA knockout: sgATF4, 10 nM | 109
sgRNA knockout: sgATF4, 100 nM | 95
sgRNA knockout: sgATF4, 1000 nM | 125
sgRNA knockout: sgATF4, 10000 nM | 115
sgRNA knockout: sgATF6, 10 nM | 130
sgRNA knockout: sgATF6, 100 nM | 94.9
sgRNA knockout: sgATF6, 1000 nM | 141
sgRNA knockout: sgATF6, 10000 nM | 134
sgRNA knockout: sgATG7, 10 nM | 105
sgRNA knockout: sgATG7, 100 nM | 93.1
sgRNA knockout: sgATG7, 1000 nM | 124
sgRNA knockout: sgATG7, 10000 nM | 125
sgRNA knockout: sgERN1, 10 nM | 106
sgRNA knockout: sgERN1, 100 nM | 94.5
sgRNA knockout: sgERN1, 1000 nM | 123
sgRNA knockout: sgERN1, 10000 nM | 128
sgRNA knockout: sgHSF1, 10 nM | 142
sgRNA knockout: sgHSF1, 100 nM | 93.5
sgRNA knockout: sgHSF1, 1000 nM | 133
sgRNA knockout: sgHSF1, 10000 nM | 150
sgRNA knockout: sgHSF2, 10 nM | 122
sgRNA knockout: sgHSF2, 100 nM | 93.8
sgRNA knockout: sgHSF2, 1000 nM | 121
sgRNA knockout: sgHSF2, 10000 nM | 130
sgRNA knockout: sgKEAP1, 10 nM | 149
sgRNA knockout: sgKEAP1, 100 nM | 106
sgRNA knockout: sgKEAP1, 1000 nM | 151
sgRNA knockout: sgKEAP1, 10000 nM | 169
sgRNA knockout: sgNFE2L2, 10 nM | 104
sgRNA knockout: sgNFE2L2, 100 nM | 91.7
sgRNA knockout: sgNFE2L2, 1000 nM | 108
sgRNA knockout: sgNFE2L2, 10000 nM | 113
sgRNA knockout: sgSLC35F2, 10 nM | 111
sgRNA knockout: sgSLC35F2, 100 nM | 85.5
sgRNA knockout: sgSLC35F2, 1000 nM | 117
sgRNA knockout: sgSLC35F2, 10000 nM | 112
sgRNA knockout: sgXBP1, 10 nM | 112
sgRNA knockout: sgXBP1, 100 nM | 94.6
sgRNA knockout: sgXBP1, 1000 nM | 120
sgRNA knockout: sgXBP1, 10000 nM | 125
